Reference: patent US20180250308A1, “NR2B SELECTIVE NMDA-RECEPTOR ANTAGONISTS FOR TREATMENT OF IMMUNE-MEDIATED INFLAMMATORY DISEASES” (WESTFALISCHE WILHELMS-UNIVERSITAT MUNSTER, priority 2015, published 2018)
Some results were stated once for a whole list of compounds, not compound by compound. For at least one compound, name, drawing or mass did not settle the structure.

Chains of the proteins cited; added tags and fusions are not shown.
UniProt Q60492, whole entry: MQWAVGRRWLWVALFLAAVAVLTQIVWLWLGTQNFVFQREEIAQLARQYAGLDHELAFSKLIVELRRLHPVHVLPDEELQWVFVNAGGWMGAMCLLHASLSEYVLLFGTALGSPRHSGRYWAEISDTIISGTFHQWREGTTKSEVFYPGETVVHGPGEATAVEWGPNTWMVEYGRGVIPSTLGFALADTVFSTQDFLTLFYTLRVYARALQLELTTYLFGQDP

Key:
σ2 receptor = target: T1, σ2 receptor (Rattus norvegicus, UniProt Q5U3Y7); experiment: Binding assay with [3H]-ditolylguanidine, σ2 receptor; conditions: rat liver membranes
T1 construct: Two rat livers (Harlan Winkelmann, Borchen, Germany) were cut into smaller pieces and homogenized; tissue Harlan Winkelmann, Borchen, Germany; host or cells: rat liver membrane preparation
T1 sequence (Q5U3Y7 1-176): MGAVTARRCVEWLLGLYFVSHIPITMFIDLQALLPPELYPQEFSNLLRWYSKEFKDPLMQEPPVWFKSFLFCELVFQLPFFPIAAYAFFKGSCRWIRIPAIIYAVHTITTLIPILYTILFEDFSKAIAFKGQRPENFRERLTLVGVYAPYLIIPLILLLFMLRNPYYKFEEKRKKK

σ1 receptor = target: T2, σ1 receptor (Cavia porcellus, UniProt Q60492); experiment: Binding assay with [3H]-(+)-pentazocine, σ1 receptor; parameters: species or system guinea pig; conditions: printed: only at concentrations above 1 μM or 10 μM
T2 construct: Five guinea pig brains (Harlan Winkelmann, Borchen, Germany) were homogenized; tissue Harlan Winkelmann, Borchen, Germany; host or cells: guinea pig brain membrane preparation
Description: Five guinea pig brains (Harlan Winkelmann, Borchen, Germany) were homogenized with the potter (500-800 rpm, 10 up-and-down strokes) in 6 volumes of cold 0.32 M sucrose. […] This procedure was repeated twice.
The incubation was terminated by rapid filtration through the presoaked filtermats using a cell harvester.

| Compound | inhibition of the σ2 receptor only at concentrations above (σ2 receptor) | inhibition of the σ1 receptor only at concentrations above (σ1 receptor) |
| --- | --- | --- |
| COc1ccc2c(c1)CCN(CCCCc1ccccc1)CC2O (stereo not drawn) [formula (4)] | above 1 μm |  |
| COc1ccc2c(c1)CCN(CCCC(=O)c1ccc(F)cc1)CC2O (stereo not drawn) [formula (6)] | above 1 μm | above 1 μM |
